Source: ChEMBL document CHEMBL3988442, “University of Dundee, Small-Polar-MMV Screening Library” (2021).

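Whole-parasite assay of Trypanosoma brucei over 72 hours; the read-out is not stated. Tested at 30 µM. The record gives no direction; compounds that gave an IC50 in retests scored well above the rest, so higher reads as stronger inhibition. Values scatter widely below zero; nearly all retest evidence comes from the higher of the two concentrations used. About 64,000 compounds were tested under these conditions; 1.5% (about 940) showed 50% or more at least once.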

The filed quantity is “Percent Effect” (%). The controls that fix the scale are not given in the record; negative values are as filed. Compounds were drawn at random from those tested, without regard to their results.

| structure | percent effect |
|---|---|
| `CC(=O)N1CCCC1c1nccnc1Nc1ncccn1` (stereo unspecified) | 5.475 |
| `O=C(NCCNc1ncccn1)N1CC=C(c2ccccc2)CC1` | -7.044 |
| `C[C@@H]1CN(CC(C)(C)N2CCCCC2)CC[C@@]1(O)C1CC1` | -0.2145 |
| `Cc1cc(C)cc(NCCC(=O)NCc2cccnc2N(C)C)c1` | 1.393 |
| `Cc1cc(C)c(CNC(=O)NCCOc2ccc3c(c2)CCC3)c(=O)[nH]1` | -14.55 |
| `NC(=O)CN(CC(=O)NCc1cccc(Cl)c1)C1CCCC1` | -15.64 |
| `CCn1cc(C(=O)NCc2ccc3c(c2)OCO3)c(C)n1` | -10.58 |
| `c1csc(-c2nc(CN3CCN(c4cnccn4)CC3)co2)c1` | 21.43 |
| `O=C(O)C(F)(F)F.[H][C@@]12CN(CC3CCCCC3)C[C@]1([H])OCCN2c1ncc(F)cn1` | -76.53 |
| `Fc1ccc(-c2nc(CN3CCOC(Cn4cccn4)C3)co2)cc1` (stereo unspecified) | 15.69 |
| `O=C1CC(CNc2cncc(Cl)n2)c2ccccc2N1` (stereo unspecified) | -33.53 |
| `Cc1cnn(CC2CN(Cc3cccnc3)CCO2)c1` (stereo unspecified) | 1.74 |
| `COc1ccc(NC(=O)C2OC(c3cccs3)=NN2C(C)=O)cc1` (stereo unspecified) | 24.88 |
| `c1csc(CN2CCCN(c3ncnc4[nH]ccc34)CC2)c1` | 14.41 |
| `CCN1Cc2nc(OC)c(CNC(=O)C3CCS(=O)(=O)CC3)cc2C1=O` | -13.59 |
| `CC(C)COCC1CN(Cc2ccsc2)Cc2ncn(C)c21` (stereo unspecified) | -16.14 |
| `O=C(c1ccc[nH]1)N1CCc2ncc(Cn3cccn3)n2CC1` | -20.36 |
| `Cc1ccc(F)c2c1CCCN2C(=O)Cc1c(C)nn(C)c1C` | -35.76 |
| `Cc1noc(C)c1CC(=O)NCC(CC(C)C)N1CCOCC1` (stereo unspecified) | -18.73 |
| `Cc1cccc(N2CC(c3nnc(N)s3)CC2=O)c1` (stereo unspecified) | -4.314 |
| `[H][C@]12CC[C@]([H])(CN(C(=O)c3ccccn3)C1)N(C(=O)CCN1CCCC1)C2` | -27.98 |
| `CCC1c2ccsc2CCN1C(=O)NCc1cc[nH]n1` (stereo unspecified) | -2.254 |
| `O=C(c1cnc2ccc(Cl)cc2c1NCc1ccco1)N1CCCCC1` | 6.173 |
| `O=C(O)C(F)(F)F.[H][C@]12CCC(=O)N(c3ccccc3)[C@@]1([H])CCN2c1ncc(C)cn1` | -21.41 |
| `O=C(O)C(F)(F)F.O=S(=O)(Cc1ccccc1)N1CCCn2cnc(CN3CCCC3)c2C1` | -13.86 |
| `CS(=O)(=O)c1ccccc1-n1cc(NC(=O)CC2C=CCC2)cn1` (stereo unspecified) | -27.32 |
| `Cc1ncccc1OC1(C(=O)NCCNc2ccccc2)CCNCC1` | 0.199 |
| `Cc1cc(S(=O)(=O)NCC(C)(C)N)c(F)cc1F.Cl` | -16.3 |
| `COCCOc1ccccc1C(=O)N1CCCCC1c1nccs1` (stereo unspecified) | -7.062 |
| `CCCc1n[nH]c(C2CN(CCNS(=O)(=O)CC)CCO2)n1` (stereo unspecified) | 1.603 |
| `[H][C@]12CC[C@@]3(N=C(CC)N(CC4CC4)C3=O)[C@@]1([H])CN(S(=O)(=O)CC(C)C)C2` | -19.56 |
| `Cn1ccnc1C1CCN(C(=O)COCC(F)(F)C(F)F)CC1` | -3.027 |
| `O=C(O)C(F)(F)F.[H][C@@]12CCN(C(=O)c3ccccn3)[C@]1([H])CCC(=O)N2Cc1csc(C)n1` | -23.45 |
| `CC(=O)N1CCN(C(=O)c2cccc(OCc3cscn3)c2)CC1` | 2.184 |
| `Nc1nccnc1C(=O)N1CC(OCc2cccc3ccccc23)C1` | -23.29 |
| `CSCCCN1C[C@H](NC(=O)c2cnn(C)c2)[C@@H](C2CC2)C1` | -25.99 |
| `CNc1ncc2c(n1)CN(C1CCCC1)C2=O` | -26.22 |
| `CCN1CCN(c2ncc3c(=O)n(Cc4ccco4)ccc3n2)CC1` | -5.663 |
| `COCCCNC(=O)c1cc(-c2ccc(OC)cc2)nn1C` | -0.6303 |
| `Cc1noc(CN(C)CC(c2cccs2)N2CCOCC2)n1` (stereo unspecified) | -14.63 |
| `Cc1cc(C)n(-c2nc(C(=O)NCCN3CCC(C)CC3)cs2)n1` | 41.67 |
| `COc1cccc(CC2CN(C3CC(C)(C)NC(C)(C)C3)CCO2)c1` (stereo unspecified) | -70.05 |
| `CN1CCCN(C(=O)NCc2ccccc2Cn2cncn2)CC1` | -14.03 |
| `Cc1cc(N)cc(C2CN(Cc3cc[nH]n3)CCO2)n1` (stereo unspecified) | 20.93 |
| `O=C(CCNC(=O)c1ccoc1)Nc1cc(F)ccc1F` | 22.15 |
| `COc1cccc(C2CCN2C(=O)c2cc(C(C)C)on2)c1` (stereo unspecified) | -1.985 |
| `Cc1ccc(CN2CC3(CCN(C(=O)Cc4ccc(Cl)cc4)C3)C2)o1` | -25.66 |
| `Cn1cc(C(=O)NCc2cn3c(n2)CN(C2CCOCC2)CC3)cn1.O=C(O)C(F)(F)F` | -31.24 |
| `[H][C@@]12CCN(C(=O)Cc3ccc(C)cc3)C[C@]1(COC)CCO2` | -56.87 |
| `O=C(COCc1ccccc1Cl)N1CCCC(n2cccn2)C1` (stereo unspecified) | -27.55 |
| `COCC1CCN(S(=O)(=O)N2C[C@H](c3ccccc3)[C@@H](N)C2)CC1` | -1.048 |
| `Cc1ccc(CNC(=O)c2ccc(=O)n(C)n2)c(OCC2CC2)c1` | -44.76 |
| `Cc1cccc(Nc2nccnc2C2CCCN(CC(=O)N(C)C)C2)n1` (stereo unspecified) | 2.474 |
| `Cn1cc(Br)c(=O)c(NS(=O)(=O)c2ccc(Cl)cc2)c1` | -17.21 |
| `COc1cc(OC)cc(C2(O)CCN(Cc3nc(C)c(C)o3)CC2)c1` | -56.57 |
| `O=C(C1CCCC1)N1CCN(Cc2nc(-c3ccco3)no2)CC1` | 26.76 |
| `Cn1c(N)c2c(=O)n(C)c(-c3ccc(Cl)cc3)cc2c(C#N)c1=O` | -37.11 |
| `CCC(CNC(=O)CCn1cncn1)N1CCc2ccccc2C1` (stereo unspecified) | -60.68 |
| `CC(C)(C)CN(CCC#N)C(=O)c1cccc(CC#N)c1` | -84.87 |
| `FC(F)(F)c1cccnc1N1CCC(OC2CCOCC2)CC1` | -29.17 |
| `O=C(O)C(F)(F)F.O=C(O)C(F)(F)F.O=C(O)C(F)(F)F.[H][C@@]12C[C@@H](Oc3cccnc3)CN1CCN(Cc1cccc(C)n1)C2` | -13.55 |
| `CC(C)[C@@H]1CN(C2CCN(Cc3ccccc3)CC2)C[C@H]1NS(C)(=O)=O` | 4.803 |
| `Cc1nc(CNC(=O)CC2C(=O)NCCN2Cc2ccccc2C)n[nH]1` (stereo unspecified) | -20.89 |
| `CO[C@@H]1CCC[C@@H](NC(=O)C(C)(C)c2cccc(F)c2)[C@H]1O` | -3.84 |
| `CN1CC(=O)N(c2ccsc2)CC12CCN(C(=O)N1CCCC1)C2.O=C(O)C(F)(F)F` (stereo unspecified) | -23.05 |
| `Cc1nc(C)n(CC(=O)N2CCCC(c3cc4ccccc4cn3)C2)n1` (stereo unspecified) | -12.1 |
| `Cc1nn(C)c2nc(N3CCCCC3c3nccs3)sc12` (stereo unspecified) | -4.18 |
| `CN1C[C@]2(CC[C@@H](C(=O)N3CCOCC3)CC2)Oc2ccccc2C1=O` | -18.99 |
| `O=C1CNCC(C(=O)N2CC(Oc3ccccc3Cl)C2)N1` (stereo unspecified) | -14.63 |
| `CCC(C)N(Cc1cnc(OC)nc1)Cc1ccsc1` (stereo unspecified) | -64.35 |
| `CC1CN(C(=O)Nc2ccc(Cl)c(C(=O)NC3CC3)c2)CC(C)(C)O1` (stereo unspecified) | -32.92 |
| `O=C(NC1CCCC1)N1CCCC(c2nccn2Cc2ccncc2)C1` (stereo unspecified) | 3.162 |
| `CCCc1nccn1-c1cccc(CN2CCCC2)c1` | -1.966 |
| `COCCC(=O)N1Cc2cnc(Cc3ccc(OC)cc3)nc2C1` | -1.273 |
| `CC(NC(=O)NCCCN1CCCC1)c1nncn1C` (stereo unspecified) | -14.6 |
| `O=C(c1ccsc1)N1CCc2ncc(Cn3cncn3)n2CC1` | -241.7 |
| `O=C(O)C(F)(F)F.O=C(O)C(F)(F)F.[H][C@@]12CN(Cc3cccnc3)C[C@]1([H])CN(C(=O)c1cnc(C)cn1)C2` | 48.89 |
| `CS(=O)(=O)N1CCCc2sc(C(=O)NC3CC3)nc21` | -88.37 |
| `CCCN1CCCN(C(=O)c2oc(C)nc2C)CC1` | -14.02 |
| `CC(C)(C)c1nnc(CN(Cc2cccs2)CC2CCCO2)o1` (stereo unspecified) | 2.652 |
| `CC(C)c1cc(O)nc(C2CCCN2C(=O)C(C)(C)C)n1` (stereo unspecified) | -172 |
| `c1ncn(CC2CN(CCCOc3ccc4c(c3)OCO4)CCO2)n1` (stereo unspecified) | -10.11 |
| `CC(C)N1CCC(Cc2cncc(-c3cccc(C(=O)O)c3)n2)CC1` | -13.95 |
| `CCN1CC2(CC1=O)CN(Cc1ccc(C)o1)CCN(C(=O)C(C)C)C2.O=C(O)C(F)(F)F` (stereo unspecified) | -2.917 |
| `Cn1ccc(C(=O)NCC2(O)CCN(c3cnccn3)C2)n1` (stereo unspecified) | -2.249 |
| `O=C(Nc1nnc(C2CC2)s1)NC1CCOc2ccccc21` (stereo unspecified) | -23.95 |
| `Cl.O=C(NCc1ccccc1)C1=NOC2(CCNC2)C1` (stereo unspecified) | 2.25 |
| `COCCC1(C(=O)O)CCCN(Cc2ccccc2OCCO)C1` (stereo unspecified) | -6.936 |

9 of the entries, repeated:

- O=C(O)C(F)(F)F.[H][C@]12CCC(=O)N(c3ccccc3)[C@@]1([H])CCN2c1ncc(C)cn1 | -21.41%
- CCCN1CCCN(C(=O)c2oc(C)nc2C)CC1 | -14.02%
- c1csc(-c2nc(CN3CCN(c4cnccn4)CC3)co2)c1 | 21.43%
- CCn1cc(C(=O)NCc2ccc3c(c2)OCO3)c(C)n1 | -10.58%
- c1csc(CN2CCCN(c3ncnc4[nH]ccc34)CC2)c1 | 14.41%
- Cc1cc(C)cc(NCCC(=O)NCc2cccnc2N(C)C)c1 | 1.393%
- O=C1CC(CNc2cncc(Cl)n2)c2ccccc2N1 (stereo unspecified) | -33.53%
- O=C(O)C(F)(F)F.O=C(O)C(F)(F)F.O=C(O)C(F)(F)F.[H][C@@]12C[C@@H](Oc3cccnc3)CN1CCN(Cc1cccc(C)n1)C2 | -13.55%
- Cc1cnn(CC2CN(Cc3cccnc3)CCO2)c1 (stereo unspecified) | 1.74%